Measured values published in the supplement of paper PMC11542785.
Structures can show the parent of a compound that is named as a salt. This is one part of the list. Single values are uncertain, as repeats are few or missing.

System: Drosophila melanogaster DPAGT1 (Alg7) RNAi eye model
Assay: eye size Z-score vs DMSO-treated DPAGT1 model flies; higher = larger eye (suppression of DPAGT1 phenotype)
Conditions: 5 uM

| SMILES | eye size Z-score | eye size Z-score (female) |
| --- | --- | --- |
| CC(=O)S[C@@H]1CC2=CC(=O)CC[C@]2(C)[C@H]2CC[C@@]3(C)[C@@H](CC[C@@]34CCC(=O)O4)[C@H]12 [Spironolactone] | -0.03 |  |
| CCCc1cc(C(N)=S)ccn1 [Prothionamide] | 1.4 |  |
| CC(Cc1cccc(C(F)(F)F)c1)NCCOC(=O)c1ccccc1 (stereo unspecified) [Benfluorex] | 1.11 |  |
| C=C1CC[C@H](O)C/C1=C/C=C1\CCC[C@]2(C)[C@@H]([C@H](C)CCCC(C)C)CC[C@@H]12 [Cholecalciferol] | 0.92 |  |
| NNCCc1ccccc1 [Phenelzine sulfate] | -1.18 |  |
| C[C@H]1O[C@H](O[C@H]2[C@H](O)[C@@H](O)[C@@H](O[C@H]3[C@H](O)[C@@H](O)C(O)O[C@@H]3CO)O[C@@H]2CO)[C@H](O)[C@@H](O)[C@@H]1N[C@H]1C=C(CO)[C@@H](O)[C@H](O)[C@H]1O (stereo partly specified) [Acarbose] | -0.24 |  |
| CC(C)(CO)[C@@H](O)C(=O)NCCC(=O)NCCSSCCNC(=O)CCNC(=O)[C@H](O)C(C)(C)CO [D-Pantethine] | 0.4 |  |
| CN1CCC(=C2c3ccccc3C=Cc3ccccc32)CC1 [Cyproheptadine hydrochloride] | -0.09 |  |
| CC(C)(C)NC[C@@H](O)COc1cccc2c1CCCC2=O [(+) Levobunolol hydrochloride] | 0.64 |  |
| CO[C@H]1/C=C/O[C@@]2(C)Oc3c(C)c(O)c4c(O)c(c(/C=N/N5CCN(C6CCCC6)CC5)c(O)c4c3C2=O)NC(=O)/C(C)=C\C=C\[C@H](C)[C@H](O)[C@@H](C)[C@@H](O)[C@@H](C)[C@H](OC(C)=O)[C@@H]1C [Rifapentine] | 0.75 |  |
| N=C(N)NC(=N)NCCc1ccccc1 [Phenformin hydrochloride] | 0.89 |  |
| NCCc1c[nH]cn1 [Histamine dihydrochloride] | -0.08 |  |
| OC(Cn1cncn1)(Cn1cncn1)c1ccc(F)cc1F [Fluconazole] | -0.62 |  |
| CCCOc1cc(N)ccc1C(=O)OCCN(CC)CC [Propoxycaine hydrochloride] | 1.06 |  |
| C[C@@H](NCCCc1cccc(C(F)(F)F)c1)c1cccc2ccccc12 [Cinacalcet hydrochloride] |  | 0.63 |
| CC[N+](C)(C)c1cccc(O)c1 [Edrophonium chloride] | 0.97 |  |
| OCCN1CCN(CC/C=C2/c3ccccc3Sc3ccc(C(F)(F)F)cc32)CC1 [Flupentixol dihydrochloride cis-(Z)] | 0.01 |  |
| Cc1cn[nH]c1 [Fomepizole] | -0.66 |  |
| CC(=O)OCC(=O)[C@@]1(O)CC[C@H]2[C@@H]3CCC4=CC(=O)C=C[C@]4(C)[C@@]3(Cl)[C@@H](Cl)C[C@@]21C [Dichlorisone acetate] | -0.02 |  |
| CCCCN(CCCC)CCCOC(=O)c1ccc(N)cc1 [Butacaine] | -0.81 |  |
| Cc1ccc(C(=O)c2ccc(CC(=O)O)n2C)cc1 [Tolmetin sodium salt dihydrate] | 0.21 |  |
| COC(=O)Nc1nc2cc(C(=O)c3cccs3)ccc2[nH]1 [Nocodazole] | -0.74 |  |
| CC[N+](C)(CC)CCOC(=O)C1c2ccccc2Oc2ccccc21 [Methantheline bromide] | 0.05 |  |
| CC(=O)OCC(=O)[C@@]1(O)CC[C@H]2[C@@H]3CCC4=CC(=O)CC[C@]4(C)[C@@]3(F)[C@@H](O)C[C@@]21C [Fludrocortisone acetate] | -0.84 |  |

| SMILES | eye size Z-score | eye size Z-score (female) |
| --- | --- | --- |
| NS(=O)(=O)c1cc(C2(O)NC(=O)c3ccccc32)ccc1Cl (stereo unspecified) [Chlorthalidone] | 0.14 |  |
| C=CC(N)CCC(=O)O (stereo unspecified) [Vigabatrin hydrochloride] | 0.45 |  |
| CC(=O)OCC(=O)[C@@]1(O)CC[C@H]2[C@@H]3CCC4=CC(=O)CC[C@]4(C)[C@H]3[C@@H](O)C[C@@]21C [Cortisol acetate] | 0.67 |  |
| Cc1ncc(C[n+]2csc(CCO)c2C)c(N)n1 [Thiamine hydrochloride] | -0.28 |  |
| CC(C)c1c(C(=O)Nc2ccccc2)c(-c2ccccc2)c(-c2ccc(F)cc2)n1CC[C@@H](O)C[C@@H](O)CC(=O)O [Atorvastatin] | -1.91 |  |
| CCN[C@H]1CN(CCCOC)S(=O)(=O)c2sc(S(N)(=O)=O)cc21 [Brinzolamide] | -0.89 |  |
| CC(=O)Oc1ccccc1C(=O)Nc1ncc([N+](=O)[O-])s1 [Nitazoxanide] | -0.52 |  |
| CCN(CC)CCOC(=O)C1(C2CCCCC2)CCCCC1 [Dicyclomine hydrochloride] | 1.22 |  |
| CCCCOCCOCCOCc1cc2c(cc1CCC)OCO2 [Piperonyl butoxide] | 0.26 |  |
| CC(N/C(=N\C#N)Nc1ccncc1)C(C)(C)C (stereo unspecified) [Pinacidil monohydrate] | -0.09 |  |
| CCCCC(O)c1ccccc1 (stereo unspecified) [Fenipentol] | -1.17 |  |
| CN(C)CCCN1c2ccccc2Sc2ccc(C(F)(F)F)cc21 [Triflupromazine hydrochloride] |  | -0.35 |
| COc1cc(C(=O)OCCCN2CCCN(CCCOC(=O)c3cc(OC)c(OC)c(OC)c3)CC2)cc(OC)c1OC [Dilazep dihydrochloride] | -0.25 |  |
| O=C1c2c(O)cccc2Cc2cccc(O)c21 [Anthralin] | 1.31 |  |
| C[C@@H]1C[C@H]2[C@@H]3C[C@H](F)C4=CC(=O)C=C[C@]4(C)[C@@]3(F)[C@@H](O)C[C@]2(C)[C@@]1(O)C(=O)CO [Flumethasone] | 0.39 |  |
| O=C(O)Cc1ccc(-c2ccccc2)cc1 [Felbinac] | 0.22 |  |
| O=C(O)c1cn(-c2ccc(F)cc2)c2cc(N3CCNCC3)c(F)cc2c1=O [Sarafloxacin] | -0.35 |  |
| C[N+]1(C)CCC(OC(=O)C(O)(c2ccccc2)C2CCCC2)C1 (stereo unspecified) [Glycopyrrolate bromide] | 0.27 |  |
| Clc1ccc(CCC(Cn2ccnc2)Sc2c(Cl)cccc2Cl)cc1 (stereo unspecified) [Butoconazole nitrate] | -0.93 |  |
| N#Cc1ccc(C(c2ccc(C#N)cc2)n2cncn2)cc1 [Letrozole] | -0.41 |  |
| N=C(NCCCCCCNC(=N)NC(=N)Nc1ccc(Cl)cc1)NC(=N)Nc1ccc(Cl)cc1 [Chlorhexidine] | -1.53 |  |
| NCc1ccccc1CC(=O)N[C@@H]1C(=O)N2C(C(=O)O)=C(CSc3nnnn3CC(=O)O)CS[C@H]12 [Ceforanide] | 0.1 |  |
| CN1CCN(C2=Nc3ccccc3Oc3ccc(Cl)cc32)CC1 [Loxapine succinate] | -0.27 |  |
| Oc1c(Br)cc(Br)c2cccnc12 [Broxyquinoline] | 0.2 |  |

| SMILES | eye size Z-score | eye size Z-score (female) |
| --- | --- | --- |
| COc1ccc(CC(C)NCC(O)c2ccc(O)c(NC=O)c2)cc1 (stereo unspecified) [Formoterol fumarate] | -0.25 |  |
| CCOC(=O)N1CCC(=C2c3ccc(Cl)cc3CCc3cccnc32)CC1 [Loratadine] | 0.15 |  |
| CC(=O)[C@@]12O[C@](C)(c3ccccc3)O[C@@H]1C[C@H]1[C@@H]3CCC4=CC(=O)CC[C@]4(C)[C@H]3CC[C@@]12C [Algestone acetophenide] | 0.54 |  |
| COC(=O)[C@H](c1ccccc1Cl)N1CCc2sccc2C1 [Clopidogrel] | -0.03 |  |
| C[C@]12CCC(=O)C=C1CC[C@@H]1[C@@H]2C(=O)C[C@@]2(C)[C@H]1CC[C@]2(O)C(=O)CO [Cortisone] | 0.42 |  |
| COCCCC/C(=N\OCCN)c1ccc(C(F)(F)F)cc1 [Fluvoxamine maleate] |  | 1.22 |
| C[C@H](N[C@@H](CCc1ccccc1)C(=O)O)C(=O)N1CCC[C@H]1C(=O)O [Enalaprilat dihydrate] | 0.64 |  |
| CN(C)[C@@H]1C(O)=C(C(N)=O)C(=O)[C@@]2(O)C(O)=C3C(=O)c4c(O)cccc4[C@@](C)(O)[C@H]3C[C@@H]12 [Tetracycline hydrochloride] | 1.08 |  |
| Cc1ccc(N(CC2=NCCN2)c2cccc(O)c2)cc1 [Phentolamine hydrochloride] | -0.06 |  |
| CCc1ccc(CCOc2ccc(CC3SC(=O)NC3=O)cc2)nc1 (stereo unspecified) [Pioglitazone] | 0.29 |  |
| Cc1c(Cl)cccc1Nc1ccccc1C(=O)O [Tolfenamic acid] | -0.15 |  |
| CCCSc1ccc2[nH]c(NC(=O)OC)nc2c1 [Albendazole] | 1.02 |  |
| CO[C@H]1/C=C/O[C@@]2(C)Oc3c(C)c(O)c4c(O)c(c(/C=N/N5CCN(C)CC5)c(O)c4c3C2=O)NC(=O)/C(C)=C\C=C\[C@H](C)[C@H](O)[C@@H](C)[C@@H](O)[C@@H](C)[C@H](OC(C)=O)[C@@H]1C [Rifampicin] | -0.43 |  |
| CC(C(=O)O)c1ccc(CC2CCCC2=O)cc1 (stereo unspecified) [Loxoprofen] | 0.34 |  |
| CC[C@H]1OC(=O)[C@H](C)[C@@H](O[C@H]2C[C@@](C)(OC)[C@@H](O)[C@H](C)O2)[C@H](C)[C@@H](O[C@@H]2O[C@H](C)C[C@H](N(C)C)[C@H]2O)[C@](C)(O)C[C@@H](C)C(=O)[C@H](C)[C@@H](O)[C@]1(C)O [Erythromycin] | 0.2 |  |
| c1ccc(CC2=NCCN2)cc1 [Tolazoline hydrochloride] | -0.05 |  |
| OCCN1CCN(CCCN2c3ccccc3Sc3ccc(C(F)(F)F)cc32)CC1 [Fluphenazine dihydrochloride] | -1.15 |  |
| CC(C)(Oc1ccc(CCNC(=O)c2ccc(Cl)cc2)cc1)C(=O)O [Bezafibrate] | 0.11 |  |
| O=C1c2ccccc2C(=O)C1c1ccccc1 [Phenindione] | 0.87 |  |
| Clc1ccc2c(c1)C(N1CCNCC1)=Nc1ccccc1O2 [Amoxapine] | -0.89 |  |
| O=C(O)CCc1nc(-c2ccccc2)c(-c2ccccc2)o1 [Oxaprozin] | -0.71 |  |
| C[C@H](NCc1ccc(OCc2cccc(F)c2)cc1)C(N)=O [Safinamide] | 1.26 |  |
| CC(=O)OCC(=O)NCCCOc1cccc(CN2CCCCC2)c1 [Roxatidine acetate hydrochloride] |  | -0.51 |

Record cards, from the list above.
CN1CCC(=C2c3ccccc3C=Cc3ccccc32)CC1 [Cyproheptadine hydrochloride] in the list: eye size Z-score: -0.09
Cc1ccc(C(=O)c2ccc(CC(=O)O)n2C)cc1 [Tolmetin sodium salt dihydrate] in the list: eye size Z-score: 0.21
CC(C)(Oc1ccc(CCNC(=O)c2ccc(Cl)cc2)cc1)C(=O)O [Bezafibrate] in the list: eye size Z-score: 0.11

Pulled one by one from the list above:

| SMILES | eye size Z-score | eye size Z-score (female) |
| --- | --- | --- |
| CC(=O)Oc1ccccc1C(=O)Nc1ncc([N+](=O)[O-])s1 [Nitazoxanide] | -0.52 |  |
| OC(Cn1cncn1)(Cn1cncn1)c1ccc(F)cc1F [Fluconazole] | -0.62 |  |
